Data published in patent publication US12268689B2, “Eutectic form A of Elagolix and pyrimethamine, preparation method therefor and use thereof” (Shenzhen Rentai Pharmatech Ltd., priority 2019, dated 2025).
“Also recorded” adds a separate entry of the source. For at least one compound, name, drawing or mass did not settle the structure.

Tests used:
Format in all cases: physicochemical
[1] = High humidity stability test (25° C., 92.5% RH, 30 days; HPLC purity and XRPD); details: starting purity (day 0) 98.41% (Elagolix sodium) / 98.4% (eutectic form A)
Protocol: (§1) High humidity stability: samples of a raw drug of Elagolix sodium and an eutectic form A formed by Elagolix and pyrimethamine (prepared in Comparative example 1 and Example 1, respectively) were taken and separately placed at 25° C. at 92.5% RH for 30 days, sampling was conducted at fixed time points on day 5, day 10 and day 30, respectively to determine the XRPD pattern of the eutectic form A, and the content of the raw drug of Elagolix sodium and the eutectic form A, and the determined XRPD pattern of the eutectic form A, and the determined content of the raw drug of Elagolix sodium and the eutectic form A were compared with those on day 0.
(§2) The specific stability test method can refer to the method in Appendix XIC of Part II of Chinese Pharmacopoeia (2015 Edition); and the purity was detected by an HPLC method, and can be determined by an external standard method with reference to the method in Appendix VD of Chinese Pharmacopoeia (2015 Edition) by using the sample on day 0 as a control.
(§3) Operating Conditions for HPLC
(§4) • Instrument: high performance liquid chromatograph (model: Agilent Technologies 1260) • Chromatographic column: shiseido CAPCELL PAK C18 column (5 μm, 250 mm×4.6 mm) Mobile Phase Composition and Gradient Elution Procedure:
(§5) • Detection wavelength: 254 nm • Flow rate: 1 mL/min • Injection volume: 10 μL • Column temperature: 30° C.

[2] = High temperature stability test (60° C., 30 days; HPLC purity and XRPD)
Protocol: as §1, with “temperature” for “humidity”, “60°” for “25°”, “C.” for “C. at 92.5% RH”
as §2, §3, §4, §5

[3] = Accelerated stability test (40° C., 75% RH, 30 days; HPLC purity and XRPD); details: starting purity (day 0) 98.41% (Elagolix sodium) / 98.4% (eutectic form A)
[4] = Light stability test (25° C., 4500 Lux, 30 days; HPLC purity and XRPD)
Protocol: as §1, with “Light stability: samples” for “High humidity stability: samples”, “25° C. under light conditions of 4500 Lux for 30” for “25° C. at 92.5% RH for 30”, “content of Elagolix in the raw” for “content of the raw”
as §2, §3
• Instrument: high performance liquid chromatograph (model: Agilent Technologies 1260) • Chromatographic column: shiseido CAPCELL PAK C18 column (5 μm, 250 mm×4.6 mm) Mobile Phase Composition and Gradient Elution Procedure: […]

[5] = Water adsorption experiment (DVS)
[6] = HPLC, starting purity (day 0) 98.41% (Elagolix sodium) / 98.4% (eutectic form A)

For `COc1cccc(-c2c(C)n(Cc3c(F)cccc3C(F)(F)F)c(=O)n(C[C@H](NCCCC(=O)O)c3ccccc3)c2=O)c1F` [Elagolix sodium], the “Purity after 1 month” value [1] was 93.78%, the Change in purity ([2]; 1 month vs day 0) was 3.18% and the “Purity after 1 month” value [2, 6] was 95.23%. The “Purity after 1 month” value [3] was 94.13%, the Change in purity ([4]; 1 month vs day 0) was 1.29% and the “Purity after 1 month” value [4, 6] was 97.12%. The Hygroscopic weight gain ([5]; DVS, 25° C., relative humidity raised from 0 to 60% RH) was “less than 11.01%” and the “Hygroscopicity (in words)” value ([5]; low humidity conditions (60% RH or below; 20-60% RH in b8)) was “easily hygroscopic; also recorded: high hygroscopicity”.
